Assay results taken from patent US20080069777A1.
No constants are given. Whether binding was seen depends on the method and setting. Some binding calls cover weakened binding; strength is not graded here.

The chains behind the UniProt entries cited, without tags or fusion partners. Where a name states a change or a piece, a line headed by the entry shows the natural chain unless it says otherwise.
UniProt P20701: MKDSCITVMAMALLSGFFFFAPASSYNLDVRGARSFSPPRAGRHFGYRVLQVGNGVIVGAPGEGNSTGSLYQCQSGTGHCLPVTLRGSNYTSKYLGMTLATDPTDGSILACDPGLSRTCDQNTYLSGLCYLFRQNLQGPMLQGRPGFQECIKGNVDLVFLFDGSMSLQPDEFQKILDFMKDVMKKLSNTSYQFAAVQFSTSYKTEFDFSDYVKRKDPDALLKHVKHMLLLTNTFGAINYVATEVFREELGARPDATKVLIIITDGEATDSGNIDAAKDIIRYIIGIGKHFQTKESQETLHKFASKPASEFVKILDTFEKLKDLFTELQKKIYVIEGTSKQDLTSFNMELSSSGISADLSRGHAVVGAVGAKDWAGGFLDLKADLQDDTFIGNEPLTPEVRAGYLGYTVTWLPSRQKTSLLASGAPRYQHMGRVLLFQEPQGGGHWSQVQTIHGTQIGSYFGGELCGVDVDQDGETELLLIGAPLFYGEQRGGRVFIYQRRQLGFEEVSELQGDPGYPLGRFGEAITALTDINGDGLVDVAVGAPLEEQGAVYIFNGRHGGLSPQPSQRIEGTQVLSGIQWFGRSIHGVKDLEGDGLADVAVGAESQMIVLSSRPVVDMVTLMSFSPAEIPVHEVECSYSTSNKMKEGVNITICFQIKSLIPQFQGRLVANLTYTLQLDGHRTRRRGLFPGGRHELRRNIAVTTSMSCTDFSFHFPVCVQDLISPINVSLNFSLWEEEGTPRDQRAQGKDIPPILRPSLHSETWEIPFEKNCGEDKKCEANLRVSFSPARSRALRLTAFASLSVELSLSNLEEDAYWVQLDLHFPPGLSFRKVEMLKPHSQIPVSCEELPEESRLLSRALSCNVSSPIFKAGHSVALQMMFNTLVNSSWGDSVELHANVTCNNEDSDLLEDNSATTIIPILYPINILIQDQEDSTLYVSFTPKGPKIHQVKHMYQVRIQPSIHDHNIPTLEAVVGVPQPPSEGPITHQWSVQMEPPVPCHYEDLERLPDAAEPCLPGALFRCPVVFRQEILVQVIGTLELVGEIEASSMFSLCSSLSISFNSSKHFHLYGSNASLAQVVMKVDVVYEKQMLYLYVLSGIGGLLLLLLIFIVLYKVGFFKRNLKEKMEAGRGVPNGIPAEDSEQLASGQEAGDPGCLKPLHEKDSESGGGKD

B1: D2-57 Fab (Fab, V domains shown)
VH: EVQLLESGGGLVQPGGSLRLSCAASGFTFSRYVMWWVRQAPGKGLEWVSYIWPSGGNTYYADSVKGRFTISRDNSKNTLYLQMNSLRAEDTAVYYCASSYDFWSNAFDIWGQGTMVTVSS
VL: DIQMTQSPSSLSASVGDRVTITCRASQSIGSYLNWYQQKTGKAPKALIYAASSLQSGVPSRFSGSGSGTDFTLTISSLQLEDFATYYCQQSYSTPSFGQGTKVEIKR
B2: D2-57 IgG1 (antibody, V domains shown)
VH: B1 VH
VL: B1 VL

Experiments:
[1] = target: human wild-type LFA-1 on cells (human) (UniProt P20701); test: binding to cells with magnesium
[2] = target: human wild-type LFA-1 on cells (human) (UniProt P20701); test: binding to cells (by reference to the Fab)

Binder	binding [1]	binding [2]
B1	binds	–
B2	–	binds
